The campaign covered roughly 2,200 compounds. About 15 (0.7%) were called active.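 The calls were made as follows: active = fitted half-maximal concentration for loss of luminescence signal no more than a set limit of log units above the top tested concentration; inconclusive = flat fit with 30 to 70% signal loss, or invalid fit; inactive = half-maximal concentration above that set limit.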 The list shows a part of the results.

The nature of this assay: inhibitors of ADP-Glo detection reagents, dose response, artefact control for GSK3beta inhibitor project, biochemical, luminescence, cell-free, homogeneous (AID 434947).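 Also: kinase-free counter screen of ADP-Glo detection reagents for GSK3beta hits.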 The settings on record: 5 uM ADP. In general terms: ADP-Glo first removes unused ATP, then detects ADP through luciferase.
The EC50 is the concentration giving half of the maximal effect. As to `C=CCN=C(NC#N)SC`, the EC50 was inactive: > 30 µM.
With `COC(=O)c1ccccc1OCCOc1ccccc1C(=O)OC`, the EC50 is inactive: > 30 µM.
Regarding `CCOC(=O)c1ccc(NS(=O)(=O)c2ccc3c(c2)NC(=O)CCS3)cc1`, the EC50 is inactive: > 30 µM.
For `Cc1cc(C(=O)c2ccccc2)c(NC(=O)CN2CCOCC2)s1`, the EC50 was inactive: > 30 µM.
`O=C(NC(Cc1ccccc1)c1ccc2c(c1)OCCCO2)c1ccccc1` (stereo not given): the EC50 was inactive: > 30 µM.
Regarding `CCn1c(-c2ccc([N+](=O)[O-])cc2)n[nH]c1=S`, the EC50 is inactive: > 30 µM.
Take `COc1cccc(C(=O)C[n+]2ccccc2/C=N/O)c1`: the EC50 is inactive: > 30 µM.
`CCn1c(=O)c(C(=O)NNC(=O)c2ccccc2)c(O)c2ccccc21`: the EC50 is inactive: > 30 µM.
As to `CCOc1ccccc1/C=N/NC(=O)c1nnn(-c2nonc2N)c1CN1CCCC1`, the EC50 was inactive: > 30 µM.
Take `Cc1ccnc(NC(=O)c2cccc([N+](=O)[O-])c2C)c1`: the EC50 is inactive: > 30 µM.
For the compound `CCCCOC(=O)C1=C(C)Nc2ncnn2C1c1cc(OC)c(OC)cc1OC` (stereo not given), the EC50 was inactive: > 30 µM.
For the compound `COc1ccc(CCNc2nc(-c3ccc(O)cc3)cs2)cc1OC`, the EC50 was inactive: > 30 µM.
For `OC(c1ccccc1)c1ccncc1` (stereo not given) the value was inactive: > 30 µM.
`COc1ccc(C(=O)NC(=S)NC2CCCCC2)cc1`: the EC50 was inactive: > 30 µM.
`O=C(Cn1cc[n+](CC(=O)c2ccc(Cl)cc2Cl)c1)c1ccc(Cl)cc1Cl`: the EC50 was inactive: > 30 µM.
Regarding `Cc1c(C(=O)OCc2ccccc2)nnn1-c1nonc1N`, the EC50 is inactive: > 30 µM.
Turning to `O=C(CSc1ccc2nnc(-c3ccc(F)cc3)n2n1)N1CCOCC1`, the EC50 was inactive: > 30 µM.
Take `CC1CCc2c(sc3nn[nH]c(=O)c23)C1` (stereo not given): the EC50 was inactive: > 30 µM.
Consider `Nc1nc(Nc2cccc(F)c2)nc(NCCO)c1[N+](=O)[O-]`, for which the EC50 was inactive: > 30 µM.
Turning to `CCN1CCN(CCCNC(=O)c2ccc3c(c2)NC(=O)/C(=C\c2cccc(C)c2)S3)CC1`, the EC50 was inactive: > 30 µM.
Take `CCOc1cccc(-c2c(C(=O)N/N=C(\C)c3cccs3)nnn2-c2nonc2N)c1`: the EC50 was inactive: > 30 µM.
For `O=C(Nc1ccc(O)c2c(=O)cc(-c3ccccc3Cl)oc12)c1cccc(Cl)c1` the value was inactive: > 30 µM.
In the case of `NC(=O)c1cccc2c1C(=O)N(C1CCCCC1)C2`, the EC50 was inactive: > 30 µM.
Turning to `CC1(C)CC(=O)C=C(Nc2cccc(C(F)(F)F)c2)C1`, the EC50 is inactive: > 30 µM.
For `COc1ccc(C(=O)O/N=C(/C)c2cccs2)cc1`, the EC50 was active: 16.2 µM.
Regarding `COc1cccc(C(=O)C(C#N)=C(SC)SC)c1`, the EC50 was inactive: > 30 µM.
With `CCN1CCc2c(sc(NC(=O)Cc3ccccc3)c2C(N)=O)C1`, the EC50 was inactive: > 30 µM.
On to `Clc1ccc(CSc2nnc(-c3ccncc3)o2)cc1`, for which the EC50 was inactive: > 30 µM.
Turning to `Cc1ccnc(NC(=O)c2ccccc2[N+](=O)[O-])c1`, the EC50 is inactive: > 30 µM.
For `Cc1ccc(-c2n[nH]c(=S)n2/N=C/c2ccncc2)cc1`, the EC50 was inactive: > 30 µM.
Turning to `Cc1ccc(C(=O)/C=C/c2ccc3ncccc3c2)cc1`, the EC50 is inactive: > 30 µM.
For `CCn1c(O)c(N=NC(=O)C(O)c2ccccc2)c2ccccc21` (stereo not given), the EC50 was inactive: > 30 µM.
On to `COc1ccc2nc(NC(=O)C3CCCO3)sc2c1` (stereo not given), for which the EC50 is inactive: > 30 µM.
For `C=CCOC(=O)C1=C(C)Nc2ncnn2C1c1cccs1` (stereo not given), the EC50 was inactive: > 30 µM.
Consider `CCCC1=C(C(=O)OCC)C(c2cccs2)n2ncnc2N1` (stereo not given), for which the EC50 is inactive: > 30 µM.
For `Cc1ccc2c(c1)/C(=N/N1C(=O)c3ccccc3C1=O)C(=O)N2` the value was inactive: > 30 µM; for `COc1cc(C(=O)N2CCN(c3ccccn3)CC2)cc(OC)c1OC`, inactive: > 30 µM; for `CCOC(=O)CC(=O)CSc1ccc2nnc(-c3ccc(C)cc3)n2n1`, inactive: > 30 µM.
Take `CCCN(CCC)Cc1c(C(=O)N/N=C/CCc2ccccc2)nnn1-c1nonc1N`: the EC50 was inactive: > 30 µM.
Take `Cc1ccc(CNc2nc(N)c([N+](=O)[O-])c(Nc3ccc(F)cc3)n2)cc1`: the EC50 was inactive: > 30 µM.
In the case of `CCc1c(C)c2ccc(O)c(CN(C)C)c2oc1=O`, the EC50 is inactive: > 30 µM.
For `COc1cccc2c1cc1c(=O)n(CC(=O)NCCCN3CCCCC3)nc(C)n12` the value was inactive: > 30 µM; for `CCCNC(=O)c1ccc(SCC(=O)N(CC)CC)c([N+](=O)[O-])c1`, inactive: > 30 µM; for `Nc1nonc1-n1nnc(C(=O)N/N=C/c2cccc(Cl)c2)c1CN1CCCCCC1`, inactive: > 30 µM.
Regarding `CCc1ccc(/C=N/NC(=O)c2nnn(-c3nonc3N)c2CN2CCc3ccccc32)cc1`, the EC50 was inactive: > 30 µM.
Turning to `O=c1cc(-c2ccccc2)c2c(O)cc(O)cc2o1`, the EC50 was inactive: > 30 µM.
`COc1ccc(-c2nn(-c3ccccc3)cc2/C=N/N2C(=O)CSC2=S)cc1`: the EC50 is inactive: > 30 µM.
For `COc1ccc(OC)c(C(=O)c2coc3ccc(OC(C)=O)cc23)c1` the value was inactive: > 30 µM.
In the case of `COc1cc(NC2=CC(=O)CC(C)(C)C2)cc(OC)c1OC`, the EC50 is inactive: > 30 µM.
For `CSc1nc2n(n1)C(c1cccs1)C1=C(CCCC1=O)N2` (stereo not given), the EC50 was inactive: > 30 µM.
For `COc1cccc(C2C(C#N)=C(C)NC3=C2C(=O)CC(C)(C)C3)c1` (stereo not given) the value was inactive: > 30 µM.
`CC(Sc1ccc2nnc(-c3ccc(F)cc3)n2n1)C(=O)O` (stereo not given): the EC50 was inactive: > 30 µM.
On to `C/C(CC(=O)Nc1cc(C)ccn1)=N\NC(=O)C(=O)NC(C)C`, for which the EC50 was inactive: > 30 µM.
For `CC1(C)CC(=O)C2=C(C1)Nc1[nH]c(=S)[nH]c(=O)c1C2c1ccccc1` (stereo not given) the value was inactive: > 30 µM; for `COc1ccc(-c2nn(-c3ccccc3)cc2/C=N/Nc2ccc(Cl)c(C(=O)O)c2)cc1OC`, inactive: > 30 µM.
Regarding `COc1ccc(C(=O)/C=C2/C(=O)Nc3ccccc32)c(OC)c1`, the EC50 was inactive: > 30 µM.
Then `Cc1cnc(NC(=O)c2sc(Nc3ccccc3)nc2N)o1`, with inactive: > 30 µM; and `N#Cc1c(N)n(-c2cccc(O)c2)c2nc3ccccc3nc12`, with inactive: > 30 µM; and `CCOc1ccc(CNC(=O)Cn2ccc3cc(S(=O)(=O)N4CCCCCC4)ccc32)cc1`, with inactive: > 30 µM.
On to `COC(=O)c1cc(S(=O)(=O)N2CCCC(C)C2)c[nH]1` (stereo not given), for which the EC50 is inactive: > 30 µM.
Take `N#CC(C#N)=C1NC(N)=C(C#N)C(c2ccccc2)=C1C#N`: the EC50 is inactive: > 30 µM.
Take `O=C(NCC(c1ccco1)N1CCc2ccccc21)c1c(F)cccc1F` (stereo not given): the EC50 is inactive: > 30 µM.
In the case of `O=C(O)c1ccc(N/N=C/c2ccc(-c3cccc(Cl)c3)o2)cc1`, the EC50 is inactive: > 30 µM.
In the case of `Cc1ccnc(NC(=O)c2ccc([N+](=O)[O-])s2)c1`, the EC50 was inactive: > 30 µM.
In the case of `COc1cccc(-c2nc(SCC(=O)Nc3nc(-c4ccccc4)c(C)s3)[nH]c(=O)c2C#N)c1`, the EC50 was inactive: > 30 µM.
Regarding `CCOC(=O)CCNCC1COc2ccccc2O1` (stereo not given), the EC50 is inactive: > 30 µM.
As for `O=C(COc1ccccc1[N+](=O)[O-])N/N=C/c1ccc[nH]1`, the EC50 is inactive: > 30 µM.
Then `CC(=O)CSc1nc(-c2cccs2)c(C#N)c(=O)[nH]1`, with inactive: > 30 µM; and `Cc1cc(NC(=O)CCN2CCC(C)CC2)ccc1Br`, with inactive: > 30 µM; and `CCCn1nc(NC(=O)C(C)C)c2cc3cc(OC)ccc3nc21`, with inactive: > 30 µM.
In the case of `CCSc1nnc(-c2cccs2)o1`, the EC50 was inactive: > 30 µM.
With `CSc1nc(C)cc(-n2ccc(=O)[nH]c2=O)n1`, the EC50 is inactive: > 30 µM.
`c1ccc(-c2nnc(-c3ccncc3)nc2-c2ccccc2)cc1`: the EC50 was inactive: > 30 µM.
For `COc1ccc(-c2cn3c(C)c(C(=O)Nc4ccncc4)sc3n2)cc1` the value was inactive: > 30 µM; for `O=C(N/N=C/c1ccc(N2CCCC2)c([N+](=O)[O-])c1)c1cccnc1`, inactive: > 30 µM; for `CCOC(=O)/C(C(=O)Nc1ccc(Cl)cc1Cl)=C1/NC(C)(C)Cc2ccccc21`, inactive: > 30 µM.
On to `CC(C)=CCc1c(O)cc2c(=O)c3ccc(O)cc3oc2c1O`, for which the EC50 was inactive: > 30 µM.
Turning to `CC(C)Cn1nc(NC(=O)c2cccs2)c2cc3ccccc3nc21`, the EC50 is inactive: > 30 µM.
For the compound `O=C1Nc2cc(C(=O)NCCN3CCCCCC3)ccc2S/C1=C\c1ccccc1`, the EC50 is inactive: > 30 µM.
Then `CS(=O)(=O)c1nncn1-c1ccccc1`, with inactive: > 30 µM; and `CCC(Sc1ccc2nnc(-c3ccc(F)cc3)n2n1)C(=O)OC` (stereo not given), with inactive: > 30 µM; and `CCOC(=O)c1cnc2ccc(Cl)cc2c1N1CCN(C)CC1`, with inactive: > 30 µM.
For `CCCN(CCC)Cc1c(C(=O)N/N=C/c2ccncc2)nnn1-c1nonc1N` the value was inactive: > 30 µM; for `COC(=O)C(C(=O)OC)c1ccc(NC(=O)c2cccc(Cl)c2)cc1`, inactive: > 30 µM.
Turning to `O=C1NC(=Nc2ccccc2Cl)S/C1=C\c1ccc(C(=O)O)cc1`, the EC50 was inactive: > 30 µM.
On to `CO/N=C/c1ccc(Oc2ccc([N+](=O)[O-])cc2[N+](=O)[O-])c(OC)c1`, for which the EC50 was inactive: > 30 µM.
Consider `COc1ccc(-c2c(C)oc3ccc(C)cc23)cc1`, for which the EC50 is inactive: > 1.2 µM.
On to `O=C(CCC1COc2ccccc2O1)NCC1COc2ccccc2O1` (stereo not given), for which the EC50 was inactive: > 30 µM.
Consider `O=Cc1cn(CCC(=O)O)nc1-c1cccc2ccccc12`, for which the EC50 is inactive: > 30 µM.
With `Cc1cc(OCC(F)(F)C(F)(F)C(F)(F)C(F)F)nc(N)n1`, the EC50 is inactive: > 30 µM.
On to `CCCc1cc(C(=O)Nc2cc(Br)ccc2O)no1`, for which the EC50 was inactive: > 30 µM.
Take `CCC(=O)n1nc(-c2ccc(OC)cc2)nc1N`: the EC50 is inactive: > 30 µM.
Then `Cc1cc2c(=O)oc(-c3ccc(F)cc3)nc2s1`, with inactive: > 30 µM.
In the case of `Cc1ccc(C(=O)N/N=C2\CCCc3ccccc32)c(C)c1`, the EC50 is inactive: > 30 µM.
Then `Nc1nc(NCc2ccc(Cl)cc2)nc(NCCO)c1[N+](=O)[O-]`, with inactive: > 30 µM.
